This data set in a line: general procedure: peptide synthesis; chlorotrityl chloride resin. To be noted: whole synthesis.

The substance “Glu-Leu-Ile-Glu-His (SEQ ID NO:2)-Linker-Arg-Pro-Ala-Asp (SEQ ID NO:3) peptide (linker=Gly-Gly-Gly) (ELIEHGGGRPAD; listed as Homo sapiens)” displayed a crude mass of 1.11 g. Moreover, the crude yield (scale of the general procedure 700 mg resin) came out at 88.2%.

Values taken from US8729028B2 (Caregen Co., Ltd., priority 2009, dated 2014).
